Values quoted from earlier work in publication PMC3447978, “High-Throughput 1,536-Well Fluorescence Polarization Assays for α1-Acid Glycoprotein and Human Serum Albumin Binding” (PLoS ONE, 2012).

system: AGP and HSA; conditions: cited from earlier work

**Q.** For `CCCCC1C(=O)N(c2ccccc2)N(c2ccccc2)C1=O` [Phenylbutazone, phenylbutazone], which “Protein Binding Preference” value is on record?
**A.** The value was “HSA”.

same assay, conditions: validation set; based on literature; cited from earlier work

**Q.** Which “Protein Binding Preference” value does the source give for `CN(C)CCCN1c2ccccc2Sc2ccc(Cl)cc21` [Chlorpromazine, chlorpromazine] here?
**A.** Its value is “AGP”.

**Q.** With `CC(C)NCC(O)COc1cccc2ccccc12` (centres unmarked) [Propranolol, propranolol] as the compound, how does the “Protein Binding Preference” value read?
**A.** Its value is “AGP”.

**Q.** With `C=CCc1ccccc1OCC(O)CNC(C)C` (centres unmarked) [Alprenolol, alprenolol] as the compound, how does the “Protein Binding Preference” value read?
**A.** Its value is “AGP”.

**Q.** Which “Protein Binding Preference” value does the source give for `OCCN(CCO)c1nc(N2CCCCC2)c2nc(N(CCO)CCO)nc(N3CCCCC3)c2n1` [Dipyridamole, dipyridamole] here?
**A.** The value was “AGP”.

**Q.** Which “Protein Binding Preference” value does the source give for `CN(C)CCC=C1c2ccccc2CCc2ccccc21` [Amitriptyline, amitriptyline] here?
**A.** Its value is “AGP”.

**Q.** For `COc1ccc2c(c1)c(CC(=O)O)c(C)n2C(=O)c1ccc(Cl)cc1` [Indomethacin, indomethacin], which “Protein Binding Preference” value is on record?
**A.** Its value is “HSA”.

**Q.** For `CN(C)CCCN1c2ccccc2CCc2ccccc21` [Imipramine, imipramine], which “Protein Binding Preference” value is on record?
**A.** Its value is “AGP”.
